At least one compound was matched to its structure with a doubt left.
Experiments:
[1] = Excitation and fluorescence wavelength by FL4500 fluorescence spectrophotometer; settings: aqueous solution
[2] = test system: brain nerve tissues of 3 dpf juvenile zebrafish; assay: Labeling of 3 dpf juvenile zebrafish (Reference Example 1); assay type: in vivo
[3] = test system: central nervous system tissues of juvenile zebrafish (7 dpf); assay: Labeling the central nervous system tissue of live 7 dpf juvenile zebrafish by immersion in labeling solution; settings: labeling solution 1 μg/mL, one hour (Table 2)
[4] = 10 mg/mL DMSO solution diluted 500-fold with distilled water
[5] = 10 mg/mL DMSO solution diluted 500-fold with distilled water (Table 2)

For O=C1OC2(c3ccc(O)cc3Oc3cc(O)ccc32)c2ccccc21 [Fluorescein, reference compound], the λem [1, 4] was 521, the λex [1, 4] was 494 and the “Excitation wavelength λex” value [1, 5] was 494. For the same compound, the “Fluorescence wavelength λem” value [1, 5] was 521, the “Stokes shift λem − λex” value [1, 5] was 27 and the “Stainability of brain nerve tissues” value [2] was “no stainability was observed”. The Fluorescence sensitivity [3] was “Absence” and the Labeling property [3] was “Absence”.

Reference: patent publication US20130280169A1, “CENTRAL NERVOUS SYSTEM TISSUE-LABELING COMPOSITION, METHOD FOR LABELING CENTRAL NERVOUS SYSTEM TISSUE, AND SCREENING METHOD USING CENTRAL NERVOUS SYSTEM TISSUE-LABELING COMPOSITION” (CANON KABUSHIKI KAISHA, priority 2009, published 2013)
